Source: article doi:10.1101/2022.12.30.521597 (bioRxiv, 2022)
No constants are given. Whether binding was seen depends on the method and setting. Binding calls can cover weak binding; strength is not graded here. For part of these data: In cells and extracts the contact can be indirect. For part of these data: Tags and fused reporters may be left off the sequences shown.

Columns and labels:
[1] = target: EXO70H4 (yeast two-hybrid bait, Gal4 BD fusion) (A. thaliana); test: two-hybrid
[2] = target: CLuc-HvCam3 (barley calmodulin 3) (barley); test: split reporter

Binder	binding [1]	binding [2]
MLO6^IC2 (second intracellular loop of MLO6, yeast two-hybrid prey) (domain or fragment, UniProt Q94KB7 183-284) KTKMRRWKKWEEETKTIEYQYSHDPERFRFARDTSFGRRHLSFWSKSTITLWIVCFFRQFFRSVTKVDYLTLRHGFIMAHLAPGSDARFDFRKYIQRSLEED	no binding	
MLO6-NLuc (natural protein) MADQVKEKTLEETSTWAVAVVCFVLLLISIVIEKLIHKIGSWFKKKNKKALYEALEKVKAELMLMGFISLLLTIGQGYISNICIPKNIAASMHPCSASEEARKYGKKDVPKEDEEENLRRKLLQLVDSLIPRRSLATKGYDKCAEKGKVAFVSAYGMHQLHIFIFVLAVCHVIYCIVTYALGKTKMRRWKKWEEETKTIEYQYSHDPERFRFARDTSFGRRHLSFWSKSTITLWIVCFFRQFFRSVTKVDYLTLRHGFIMAHLAPGSDARFDFRKYIQRSLEEDFKTIVEINPVIWFIAVLFLLTNTNGLNSYLWLPFIPFIVILIVGTKLQVIITKLGLRIQEKGDVVKGTPLVQPGDHFFWFGRPRFILFLIHLVLFTNAFQLAFFVWSTYEFGLKNCFHESRVDVIIRISIGLLVQILCSYVTLPLYALVTQMGSKMKPTVFNERVATALKSWHHTAKKNIKHGRTSESTTPFSSRPTTPTHGSSPIHLLRNAPHKRSRSVDESFANSFSPRNSDFDSWDPESQHETAETSNSNHRSRFGEEESEKKFVSSSVELPPGPGQIRTQHEISTISLRDFSFKR		binds
MLO6^CT (carboxyl terminus of MLO6, yeast two-hybrid prey) (domain or fragment, UniProt Q94KB7 433-583) VTQMGSKMKPTVFNERVATALKSWHHTAKKNIKHGRTSESTTPFSSRPTTPTHGSSPIHLLRNAPHKRSRSVDESFANSFSPRNSDFDSWDPESQHETAETSNSNHRSRFGEEESEKKFVSSSVELPPGPGQIRTQHEISTISLRDFSFKR	binds	
